The text below walks through data of PubChem BioAssay AID2685 (National Center for Advancing Translational Sciences (NCATS), 2010).

What is called AC50 is the concentration giving half of the maximal activity seen. A high value points to activity only at high concentration.

This is one part of the list. Further columns of the screen follow, without active or inactive calls. Compounds called inactive in the main read-out are mostly missing here. The note in brackets gives the kind of curve behind each potency; many fits are weak.

The assay is described as follows: qHTS Assay for Lipid Storage Modulators in Drosophila S3 Cells.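 For cell number change: cells counted by Cell Tracker Red CMTPX staining in the red channel.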 The note with it: BODIPY lipid droplet fluorescence, 18-24 h; for cell number change: measured here: cell count max response, cells fed with added oleic acid. Put shortly: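 Laser-scanning cytometry quantifies lipid droplet accumulation (500–530 nm total intensity; droplet/cell object ratio) in oleic acid-fed (400 uM added) Drosophila S3 cells treated with a concentration series. 20 uM Triacsin C defined 100% inhibition.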

[1] abbreviates: measured here: cell number channel AC50, cells fed with added oleic acid.
Setting [2] is: measured here: lipid fluorescence (Fed channel) AC50, cells fed with added oleic acid.

For `COc1cc(-c2nc3ccc(N4CCN(C)CC4)cc3[nH]2)cc(OC)c1OC`, the cell number change was -9.26%. The AC50 under setting [1] is 3.26 µM [rising, partial curve, poor fit]. In addition, the AC50 under setting [2] is 4.11 µM [rising, single point].

Turning to `Cc1ccc(S(=O)(=O)N(C)c2cc(S(=O)(=O)N3CCOCC3)c(C)cc2C)cc1`, the cell number change is -0.901%. For the same compound, under setting [2], the AC50 is 0.00461 µM [falling, partial curve, poor fit].

`Cc1cc(C)c(C#N)c(SCc2ccccc2C(=O)O)n1`: the cell number change was -10.5%. Under setting [2], the AC50 was 4.61 µM [falling, full curve, poor fit].

On to `Cc1ccc(C)c(OCC(=O)Nc2ccc3c(c2)OCO3)c1`, for which the cell number change came to 49.4%. Further, the AC50 under setting [2] is 6.51 µM [rising, partial curve, poor fit].

`CC[N+]1(CC)CC2=Cc3c(ccc4ccccc34)CC2C1` (stereo unspecified): the cell number change was -103%. In addition, the AC50 under setting [1] was 4.11 µM [falling, full curve].

For the compound `C/C(=N/OCC(=O)Nc1ccccc1)c1cccs1`, the cell number change was -7.96%. For the same compound, under setting [1], the AC50 is 0.259 µM [falling, full curve].

Consider `CCOC(=O)/C(C#N)=C/c1c(Oc2cccc(C)c2)nc2ccccn2c1=O`, for which the cell number change came to 33.9%. The AC50 under setting [1] is 0.103 µM [rising, full curve, poor fit]. The AC50 under setting [2] was 29.1 µM [rising, single point].

For the compound `C/C(=N\Nc1ccc(S(=O)(=O)Nc2ccccc2)cc1[N+](=O)[O-])c1ccc(N2CCOCC2)cc1`, the cell number change was -6.69%. Moreover, the AC50 under setting [2] is 0.731 µM [falling, full curve].

Turning to `COc1ccc(C(=O)N(C)CCCC2CCCC2)cc1OC1CCN(C(C)=O)CC1`, the cell number change was 18.8%. The AC50 under setting [2] was 6.51 µM [falling, single point].

With `CC(=O)c1cccc(NC(=O)Nc2ccc3c(c2)N(C)C(=O)CS3)c1`, the AC50 under setting [2] was 0.092 µM [rising, full curve, poor fit].

On to `COC(=O)NN=C1CCC(c2ccccc2)CC1` (stereo unspecified), for which the cell number change was 7.8%. Further, the AC50 under setting [2] is 4.61 µM [falling, single point].

For `CCCC(=O)Nc1nnc(Sc2ccc(N(C)C)cc2)s1`, the AC50 under setting [2] is 0.13 µM [rising, full curve, poor fit].

In the case of `CC(C)NC(=O)CN1C(=O)c2cccc3cccc1c23`, the cell number change amounted to 14.2%.

With `CCN(C(=O)COC(=O)c1cc(-c2ccccc2)nc2c1c(C)nn2-c1ccc(C)cc1)C1CCS(=O)(=O)C1` (stereo unspecified), the cell number change worked out at 5.34%. Further, the AC50 under setting [2] is 29.1 µM [rising, single point].

Take `COc1ccc(C2C(C(=O)O)CC(=O)N2c2ccc(OC)cc2)cc1` (stereo unspecified): the AC50 under setting [2] was 5.8 µM [falling, single point].

With `COc1ccc(S(=O)(=O)N2CCc3ccccc32)cc1C(=O)N1CCOCC1`, the cell number change turned out to be 26.1%.

Turning to `COc1ccc(NC(=O)COC(=O)c2ccc(Br)o2)cc1OC`, the cell number change is -18.1%.

Consider `CSc1ccccc1NC(=O)C1CC(c2ccccc2O)=NO1` (stereo unspecified), for which the cell number change is -2.64%. Also, under setting [1], the AC50 is 0.0058 µM [falling, full curve, poor fit].

For the compound `CC(=O)Nc1ccc(-c2cn3ccsc3n2)cc1`, the cell number change amounted to 5%. Besides, the AC50 under setting [2] was 2.59 µM [rising, partial curve].

For the compound `O=C(CN1C(=O)NC2(CCCC2)C1=O)NCCc1ccc(Cl)cc1Cl`, the cell number change was found to be 11.6%. Under setting [2], the AC50 was 6.51 µM [rising, single point].

Regarding `CC(Sc1ncc(C(F)(F)F)cc1Cl)C(=O)NC(N)=O` (stereo unspecified), the cell number change was -2.17%. The AC50 under setting [1] is 6.51 µM [rising, single point].

For the compound `Cn1cc(CC(=O)NCCCN2CCCC2)c2ccccc21`, the cell number change was -82.3%. Further, the AC50 under setting [1] was 25.9 µM [falling, partial curve, poor fit].

For `CC(C)CSc1ncnc2c1oc1nc3c(cc12)COC(C)(C)C3`, the cell number change stood at 24.9%.

Turning to `NC(=O)NC(c1ccccc1)c1cccc2ccccc12` (stereo unspecified), the cell number change was -4.69%. For the same compound, the AC50 under setting [1] is 2.59 µM [rising, partial curve, poor fit]. The AC50 under setting [2] is 3.66 µM [rising, partial curve, poor fit].

In the case of `CCCCOCCCNC(=O)N[C@@H](CC(C)C)C(=O)O`, the cell number change was -181%. In addition, under setting [1], the AC50 is 20.6 µM [falling, partial curve]. Further, the AC50 under setting [2] is 3.26 µM [falling, single point].

For `Cc1ccc(N(CC(=O)NC2CCCC2)C(=O)CCC(=O)Nc2nccs2)cc1C`, the cell number change is -33.3%. Moreover, under setting [1], the AC50 is 0.00517 µM [falling, full curve, poor fit].

Regarding `CSc1ccc(/C=C(\NC(=O)c2ccccc2)C(=O)NCCN2CCOCC2)cc1`, the cell number change is 30.4%.

Take `CCOc1ccc(OCCC(=O)OCC(=O)NC(C)c2ccccc2)cc1` (stereo unspecified): the cell number change was -4.6%. Also, the AC50 under setting [2] was 18.4 µM [falling, partial curve].

`Cc1cccc(-n2ccc(=O)c(C(=O)Nc3ccc(S(=O)(=O)Nc4nccs4)cc3)n2)c1`: the cell number change was -2.67%. Further, under setting [2], the AC50 was 4.11 µM [rising, partial curve, poor fit].

For `COCCN(Cc1cc2cc(C)c(C)cc2nc1Cl)C(=O)N1CCOCC1`, the cell number change came out at 29.7%. Moreover, the AC50 under setting [2] was 29.1 µM [rising, single point].

`COc1cc(OC)c(C(=O)OC(C)C(=O)Nc2cc(C(F)(F)F)ccc2Cl)cc1OC` (stereo unspecified): the cell number change is -6.61%. The AC50 under setting [2] was 29.1 µM [falling, single point].

Take `COc1cc2nc(C3CCC3)nc(N3CCN(c4ccccn4)CC3)c2cc1OC`: the cell number change is -35.7%. Further, the concentration at half-maximal activity (AC50) under setting [1] was 29.1 µM [falling, single point]. Besides, the AC50 under setting [2] was 2.91 µM [rising, partial curve].

Regarding `CCOC(=O)Cn1c2ccc(OC)cc2c2nc3ccccc3nc21`, the cell number change is 41.9%. Also, the AC50 under setting [1] was 0.82 µM [rising, partial curve]. Also, the AC50 under setting [2] was 0.58 µM [rising, partial curve].

On to `COc1cc(OC)cc(OCC(O)Cn2ccnc2C)c1` (stereo unspecified), for which the cell number change was -21.5%. Moreover, under setting [1], the AC50 is 1.03 µM [falling, full curve, poor fit].

Regarding `COc1cccc(CN(C)C(=O)c2ccc(OCC(=O)N3CCOCC3)c(OC)c2)c1`, the cell number change came out at 39.1%. Also, under setting [1], the concentration at half-maximal activity (AC50) is 18.4 µM [rising, single point].

Turning to `COc1ccc(CN(C)C(C)C(=O)Nc2ccc([N+](=O)[O-])cc2Cl)cc1OC` (stereo unspecified), the cell number change is -3.64%. Moreover, the AC50 under setting [2] was 0.231 µM [rising, full curve].

Consider `CCCN(CCC)c1ncnc2nc[nH]c12`, for which the cell number change came out at 31.2%. The AC50 under setting [1] was 25.9 µM [rising, single point]. Moreover, the AC50 under setting [2] was 16.4 µM [rising, partial curve].

With `C/C(=N\NC(=O)CNc1cccc(C(F)(F)F)c1)c1cccs1`, the cell number change was 26.9%.

As to `COc1ccc(OC)c(C2CC(c3c(-c4ccccc4)c4cc(Cl)ccc4[nH]c3=O)=NN2S(C)(=O)=O)c1` (stereo unspecified), the cell number change is -29.6%. Also, the AC50 under setting [2] is 3.26 µM [falling, partial curve].

As to `O=C(Nc1ccccc1)c1ccc(S(=O)(=O)N2CCOCC2)cc1`, the cell number change came to 12.6%. Moreover, the AC50 under setting [2] is 2.59 µM [falling, partial curve].

Regarding `C/C(=N\NC(=O)c1nnn(-c2nonc2N)c1CN(C)c1ccccc1)c1cccnc1`, the cell number change was found to be 37.9%. Under setting [1], the AC50 was 29.1 µM [rising, single point].

With `Cc1nnc(Nc2ccc3c(c2)ncn3C)c2ccccc12`, the cell number change was 22.2%. Further, the AC50 under setting [1] was 0.366 µM [rising, partial curve]. Further, the AC50 under setting [2] is 29.1 µM [rising, partial curve].

With `CC(=O)Cc1nsc(NC(=O)c2c(-c3ccccc3Cl)noc2C)n1`, the cell number change stood at 31.2%. In addition, the AC50 under setting [1] was 2.06 µM [rising, partial curve, poor fit]. Moreover, the AC50 under setting [2] is 0.58 µM [rising, partial curve, poor fit].

`CCOCC(=O)Nc1cc(S(=O)(=O)N2CCOCC2)ccc1N1CCCCC1`: the cell number change amounted to 6.38%. Further, the AC50 under setting [2] is 1.84 µM [falling, partial curve, poor fit].

Regarding `COc1ccc(Nc2cccccc2=O)cc1`, the cell number change was found to be 12.9%. Moreover, the AC50 under setting [2] was 4.11 µM [rising, partial curve].

Consider `Cc1ccn2c(C(=O)N/N=C\c3cccs3)c(C)nc2c1`, for which the half-maximal activity concentration (AC50) under setting [2] is 0.461 µM [rising, single point].

As to `CC(C)N1C(=O)CC2(CC[N+](C)(CCOC(=O)C(c3ccccc3)c3ccccc3)CC2)C1=O` (stereo unspecified), the cell number change is -15.3%. Besides, the AC50 under setting [2] is 25.9 µM [falling, single point].

As for `COc1cc2nc(C3CC3)n(NC(=O)c3ccc(F)cc3)c(=O)c2cc1OC`, the cell number change is -18.6%. Also, under setting [2], the AC50 is 0.82 µM [rising, single point].

For `Cc1cc2nc(/C(C#N)=C\c3ccc(-c4ccccc4C(=O)O)o3)[nH]c2cc1C`, the cell number change was -44.2%. Also, under setting [1], the AC50 is 1.3 µM [rising, partial curve, poor fit]. For the same compound, the AC50 under setting [2] is 29.1 µM [rising, single point].

For the compound `CC(C)(C)SCCNS(=O)(=O)c1ccc(F)cc1`, the cell number change worked out at 43.7%. Also, under setting [2], the AC50 was 0.366 µM [rising, full curve].

With `O=C(c1cc2ccccc2o1)N1CCN(S(=O)(=O)c2c(F)cccc2F)CC1`, the cell number change is -7.14%. In addition, the AC50 under setting [2] is 11.6 µM [falling, partial curve].

As for `C=C1CSc2nc(=O)c3c4c(sc3n21)CCC4`, the cell number change is -19.5%. Besides, the AC50 under setting [2] was 2.31 µM [rising, full curve].

As for `CCCn1c(SCC(=O)NC2CCCC(C)C2C)n[nH]c1=O` (stereo unspecified), the cell number change was found to be 35%. Further, the concentration at half-maximal activity (AC50) under setting [1] is 29.1 µM [rising, single point]. The AC50 under setting [2] is 0.184 µM [rising, full curve, poor fit].

Take `Cc1ccc(CN(C)C(=O)CSc2nnc3n2CCCCC3)c(C)c1`: the cell number change is -32.8%. Besides, the AC50 under setting [1] is 0.82 µM [falling, partial curve, poor fit].

Turning to `CCc1ccc(NC(=S)Nc2cccc3cnccc23)cc1`, under setting [2], the AC50 was 0.58 µM [rising, single point].

Regarding `O=C(COc1ccccc1)N(Cc1cccs1)C1CCS(=O)(=O)C1` (stereo unspecified), the cell number change is -9.03%.

For `COc1cccc(O)c1CN1CCC(n2nccc2NC(=O)c2ccc3c(c2)OCO3)CC1`, under setting [2], the AC50 is 29.1 µM [falling, single point].

Take `Cc1ccc(C2=NN(CC(=O)NCCC(C)C)C(=O)CC2)cc1`: the cell number change was determined as 26.8%.

In the case of `COC(=O)/C(C#N)=C/c1c(Oc2cccc(C)c2C)nc2ccccn2c1=O`, the cell number change was determined as 13.6%.

As to `COc1ccc(N(C(=O)c2csnn2)C(C(=O)NC2CCCC2)c2ccccc2)cc1` (stereo unspecified), the cell number change was -21%. In addition, under setting [2], the AC50 was 6.51 µM [falling, single point].
